Results from patent publication US20100178296A1.
These are yes or no findings as the source states them, for the method shown. For some of these results: In cells and extracts the contact can be indirect. Some results given as binding are weak or reduced against the parent protein; the word gives no strength. One block for each binder: values may come before it.

By UniProt entry, the sequences of proteins in these tests, tags left out. Residues count along the entry.
UniProt O54885, residues 22-114: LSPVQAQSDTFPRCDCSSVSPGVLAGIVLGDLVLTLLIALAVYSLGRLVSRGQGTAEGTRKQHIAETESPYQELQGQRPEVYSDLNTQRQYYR

What was measured:
[1] = biological target: T1, cynomolgus CD200RLa expressed on mouse mast cells or on Ba/F3 cells with human DAP12 (cynomolgus monkey); experiment: flow cytometry on mouse mast cell and Ba/F3-DAP12 transfectants
T1 sequence: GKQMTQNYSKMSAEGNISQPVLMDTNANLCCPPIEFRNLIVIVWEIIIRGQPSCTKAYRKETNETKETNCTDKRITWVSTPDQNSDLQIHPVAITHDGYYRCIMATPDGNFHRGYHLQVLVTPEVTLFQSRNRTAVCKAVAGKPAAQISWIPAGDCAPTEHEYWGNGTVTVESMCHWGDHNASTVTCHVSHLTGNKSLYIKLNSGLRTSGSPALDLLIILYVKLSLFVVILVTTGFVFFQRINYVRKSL

[2] = biological target: T2, cynomolgus CD200RLa (form in the assay not stated) (cynomolgus monkey); experiment: ELISA or flow cytometry (not told which)
T2 sequence: T1 sequence

[3] = biological target: T1, cynomolgus CD200RLa expressed on mouse mast cells or on Ba/F3 cells with human DAP12 (cynomolgus monkey); experiment: flow cytometry on Ba/F3 cells with human DAP12 transfected with cynomolgus CD200RLa
[4] = biological target: T1, cynomolgus CD200RLa expressed on mouse mast cells or on Ba/F3 cells with human DAP12 (cynomolgus monkey); experiment: immunoprecipitation from surface-biotinylated mouse mast cell transfectants
[5] = biological target: T1, cynomolgus CD200RLa expressed on mouse mast cells or on Ba/F3 cells with human DAP12 (cynomolgus monkey); experiment: immunoprecipitation from lysate of surface-biotinylated mouse mast cells expressing cynomolgus CD200RLa, blot with streptavidin-HRP
[6] = biological target: T1, cynomolgus CD200RLa expressed on mouse mast cells or on Ba/F3 cells with human DAP12 (cynomolgus monkey); experiment: flow cytometry on mouse mast cells transfected with cynomolgus CD200RLa
[7] = biological target: mouse DAP12, endogenous in mouse mast cells (mouse) (UniProt O54885); experiment: co-immunoprecipitation with DX182, Western blot with rabbit anti-mouse DAP12
[8] = biological target: mouse DAP12, endogenous in mouse mast cells (mouse) (UniProt O54885); experiment: co-immunoprecipitation with DX182, Western blot for DAP12

binding [1]: binds | binding [2]: binds | binding [3]: binds | binding [4]: binds | binding [5]: binds | binding [6]: binds
B1: DX182, rat anti-human inhibitory CD200R monoclonal antibody (antibody, V domains shown)
VL: EVQMTQSPSTLTASPGESVSINCKASKNIRSYLAWYQQKPGKPNKLLIYSGSTLHSGTPSRFSGSGFGTDFTLTIRNLEPEDFGLYYCQQHHEYPLTFGSGTKLEIKR
VH: EIQLQESGPGLVKPSQSLSLTCSVTGYTITSGYDWSWIRKFPGNKMEWMGYINYGGSTNYKPSLGSRISITRDTSKNQFFLQLNSVSPEDTATYYCAKYNEYKSYIYDWYFDFWGPGTMVTVSS

binding [2]: binds
B2: DX184, rat anti-human inhibitory CD200R monoclonal antibody (antibody, V domains shown)
VL: DIVMTQSPTFMSISVGDRVTMSCKASQNVGSNVDWYQQKTGQSPKLLIYKASNRYTGVPDRFTGSGSGTGFTFTITNLQAEDLAVYYCMQSLSFPYTSGAGT
VH: QVQLKESGPGLVQPSQTLSLTCTVSGFSLTNNGVSWVRQPPGKGLEWIAAISSGGGTFYNSALKSRLSISRDTSKSQVFLKMNSLQTEDTAIYFCARDGDWDWYFDFWGPGTMVTVSS

binding [2]: binds
B3: DX185, rat anti-human inhibitory CD200R monoclonal antibody (antibody, V domains shown)
VH: EIQLQESGPGLVKPSQSFSLTCSVTGYTITSGYDWSWIRKFPGNRMEWMGYINYSGSTVYNPSLRSRFSITRDTSKNQFFLQLNSVASEDTATYYCAKFEASNTYLYDWYFDFWGPGTMVTVSS
VL: DVQMTQSPSYLAASPGESVSISCKAGKNINTNLAWYQAKPGKTNKVLIHSGSTLQSGTPSRFSGSGFGTDFTLTIRSLEPEDFAVYYCQQHNEFPLTFGSGTKLEIKR

binding [7]: binds | binding [8]: binds
B4: cynomolgus CD200RLa expressed on mouse mast cells or on Ba/F3 cells with human DAP12 (receptor)
chain: T1 sequence
